## Library screen at single concentrations

Sequences of proteins named here, by UniProt entry; tags and fusion partners are left off. Residues count along the entry.
UniProt P9WPC5, whole entry: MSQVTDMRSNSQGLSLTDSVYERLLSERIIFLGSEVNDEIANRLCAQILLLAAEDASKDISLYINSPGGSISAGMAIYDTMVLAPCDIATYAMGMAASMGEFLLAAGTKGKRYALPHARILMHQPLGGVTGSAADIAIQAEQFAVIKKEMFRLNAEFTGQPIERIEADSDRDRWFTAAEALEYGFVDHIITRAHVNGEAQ
UniProt P9WPC3, whole entry partner: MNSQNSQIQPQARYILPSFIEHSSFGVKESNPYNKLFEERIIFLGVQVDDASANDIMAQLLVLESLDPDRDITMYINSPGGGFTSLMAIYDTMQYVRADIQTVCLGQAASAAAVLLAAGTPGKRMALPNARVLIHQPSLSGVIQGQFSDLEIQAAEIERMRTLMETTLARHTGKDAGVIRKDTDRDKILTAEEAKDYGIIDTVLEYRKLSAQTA
UniProt Q4DA54, 1-478: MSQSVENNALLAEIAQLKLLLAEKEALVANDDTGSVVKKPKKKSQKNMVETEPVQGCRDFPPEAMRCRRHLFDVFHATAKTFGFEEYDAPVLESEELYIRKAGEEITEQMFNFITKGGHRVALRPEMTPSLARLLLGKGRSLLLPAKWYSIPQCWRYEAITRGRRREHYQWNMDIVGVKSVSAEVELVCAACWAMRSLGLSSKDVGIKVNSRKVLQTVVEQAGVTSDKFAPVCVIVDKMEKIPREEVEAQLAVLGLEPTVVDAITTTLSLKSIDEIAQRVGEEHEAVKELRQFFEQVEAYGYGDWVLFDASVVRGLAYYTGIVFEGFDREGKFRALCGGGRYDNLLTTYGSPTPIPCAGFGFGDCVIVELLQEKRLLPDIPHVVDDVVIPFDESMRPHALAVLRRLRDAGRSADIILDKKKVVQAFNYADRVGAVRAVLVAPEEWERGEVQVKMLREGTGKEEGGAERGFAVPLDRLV
UniProt I6X8D2, whole entry: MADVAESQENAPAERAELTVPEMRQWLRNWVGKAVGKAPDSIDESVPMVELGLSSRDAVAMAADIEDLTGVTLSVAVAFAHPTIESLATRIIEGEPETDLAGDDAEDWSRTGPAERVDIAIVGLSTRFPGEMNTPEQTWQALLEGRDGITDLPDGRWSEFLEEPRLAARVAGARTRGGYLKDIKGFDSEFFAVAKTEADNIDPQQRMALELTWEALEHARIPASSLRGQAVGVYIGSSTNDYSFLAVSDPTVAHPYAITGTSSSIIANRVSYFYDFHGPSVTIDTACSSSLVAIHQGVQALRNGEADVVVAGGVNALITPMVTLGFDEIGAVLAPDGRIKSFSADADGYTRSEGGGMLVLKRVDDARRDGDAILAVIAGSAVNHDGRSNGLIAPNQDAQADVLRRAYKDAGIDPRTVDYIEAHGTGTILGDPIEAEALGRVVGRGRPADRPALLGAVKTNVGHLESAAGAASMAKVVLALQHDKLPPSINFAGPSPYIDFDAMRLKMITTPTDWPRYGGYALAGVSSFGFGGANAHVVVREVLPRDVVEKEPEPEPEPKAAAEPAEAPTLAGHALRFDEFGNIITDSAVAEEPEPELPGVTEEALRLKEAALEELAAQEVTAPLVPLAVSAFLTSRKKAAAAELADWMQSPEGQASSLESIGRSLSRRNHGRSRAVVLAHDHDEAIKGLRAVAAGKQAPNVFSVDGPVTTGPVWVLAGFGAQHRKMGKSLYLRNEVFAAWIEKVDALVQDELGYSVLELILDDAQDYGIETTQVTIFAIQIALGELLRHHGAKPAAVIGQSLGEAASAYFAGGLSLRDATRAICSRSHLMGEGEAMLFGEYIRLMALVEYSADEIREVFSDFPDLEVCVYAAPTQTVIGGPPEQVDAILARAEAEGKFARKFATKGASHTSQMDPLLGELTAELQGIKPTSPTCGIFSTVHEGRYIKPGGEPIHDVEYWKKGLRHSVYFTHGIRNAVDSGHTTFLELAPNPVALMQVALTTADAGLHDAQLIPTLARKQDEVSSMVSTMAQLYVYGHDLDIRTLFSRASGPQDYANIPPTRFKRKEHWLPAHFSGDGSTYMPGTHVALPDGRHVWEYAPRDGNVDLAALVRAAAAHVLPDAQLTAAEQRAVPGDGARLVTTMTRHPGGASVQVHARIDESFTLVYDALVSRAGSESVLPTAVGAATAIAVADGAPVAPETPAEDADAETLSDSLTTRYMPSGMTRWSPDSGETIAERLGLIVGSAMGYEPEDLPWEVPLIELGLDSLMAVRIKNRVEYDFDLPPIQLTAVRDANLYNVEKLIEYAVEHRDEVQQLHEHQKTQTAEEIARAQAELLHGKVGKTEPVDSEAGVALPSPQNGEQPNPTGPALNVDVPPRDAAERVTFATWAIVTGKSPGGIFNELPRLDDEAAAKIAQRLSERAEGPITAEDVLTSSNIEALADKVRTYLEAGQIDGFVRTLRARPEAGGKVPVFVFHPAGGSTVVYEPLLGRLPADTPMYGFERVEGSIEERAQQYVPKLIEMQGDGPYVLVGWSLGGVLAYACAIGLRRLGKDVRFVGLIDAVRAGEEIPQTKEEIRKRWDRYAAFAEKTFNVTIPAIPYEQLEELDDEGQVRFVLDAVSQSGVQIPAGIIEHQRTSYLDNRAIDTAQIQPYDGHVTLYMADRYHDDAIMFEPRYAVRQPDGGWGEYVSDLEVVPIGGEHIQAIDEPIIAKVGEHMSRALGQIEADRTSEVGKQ
UniProt Q8IDJ8, 1-583: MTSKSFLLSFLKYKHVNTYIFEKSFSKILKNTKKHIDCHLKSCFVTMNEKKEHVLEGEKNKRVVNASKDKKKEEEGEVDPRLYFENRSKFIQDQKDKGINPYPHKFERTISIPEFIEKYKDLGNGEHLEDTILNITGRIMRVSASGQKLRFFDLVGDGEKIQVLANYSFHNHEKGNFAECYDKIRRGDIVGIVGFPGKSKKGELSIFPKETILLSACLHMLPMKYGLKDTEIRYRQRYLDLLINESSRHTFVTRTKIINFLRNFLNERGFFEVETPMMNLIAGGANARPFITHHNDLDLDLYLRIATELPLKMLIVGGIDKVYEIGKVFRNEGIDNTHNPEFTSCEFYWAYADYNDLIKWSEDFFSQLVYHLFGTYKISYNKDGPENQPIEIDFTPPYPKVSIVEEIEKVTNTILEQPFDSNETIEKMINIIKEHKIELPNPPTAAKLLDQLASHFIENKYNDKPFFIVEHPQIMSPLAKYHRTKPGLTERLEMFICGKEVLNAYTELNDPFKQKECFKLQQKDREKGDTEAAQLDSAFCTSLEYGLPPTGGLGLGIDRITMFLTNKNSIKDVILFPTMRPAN

The values are deposited in ChEMBL (CHEMBL3988442, “University of Dundee, Small-Polar-MMV Screening Library” (2021)).

Results are given as percent effect.
How 0% and 100% were set is not recorded. Most values in the screen are low, and negative values occur.
Compounds were drawn at random from those tested, without regard to their results.
A dash means the value is not listed here; it may have been measured.

ClpP1P2: 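Protease assay of ClpP1P2, read by the AMC dye that it sets free. Target: ClpP1P2, Mycobacterium tuberculosis (UniProt P9WPC5 and UniProt P9WPC3). Concentration: 50 µM. Higher reads as stronger inhibition, judged from the few compounds that gave an IC50. Most other retested compounds had strongly negative values. Of about 69,000 compounds tested this way, about 10 (0.015%) reached 50% or more in at least one test.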
Toxoplasma: 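Assay of Toxoplasma gondii numbers, read through their beta-galactosidase reporter with a colour substrate. Tested at 10 µM. Higher reads as fewer parasites (inferred from which compounds were picked for retests). Of about 67,000 compounds tested this way, about 260 (0.38%) reached 50% or more in at least one test.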
TcHisRS: 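Histidine-tRNA ligase, Trypanosoma cruzi CL Brener (UniProt Q4DA54). Enzyme assay of histidyl-tRNA synthetase; the read-out is not stated. Concentration: 30 µM. Direction is inferred from retests: higher values go with stronger inhibition. Size under these conditions: about 69,000 compounds, about 31 of them at 50% or above in at least one test.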
Pks13 thioesterase: 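Polyketide synthase Pks13, Mycobacterium tuberculosis (UniProt I6X8D2). Enzyme assay of the thioesterase domain of polyketide synthase 13; the read-out is not stated. Compounds at 30 µM. The record gives no direction; the compounds picked for IC50 retests had high values, so higher reads as stronger inhibition. About 67,000 compounds were tested under these conditions; 0.46% (about 300) showed 50% or more at least once.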
PfKRS1: 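Lysine-tRNA ligase, Plasmodium falciparum 3D7 (UniProt Q8IDJ8). Enzyme assay of the cytosolic lysyl-tRNA synthetase in 384-well plates, read by luminescence. Compounds at 30 µM. Direction is inferred from only a few compounds that gave an IC50; most scored high, so higher reads as stronger inhibition. Of about 69,000 compounds tested this way, about 49 (0.071%) reached 50% or more in at least one test.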

compound,ClpP1P2,Toxoplasma,TcHisRS,Pks13 thioesterase,PfKRS1
O=C(NCCCO)Nc1ccccc1,6.797%,-0.4764%,7.143%,-14.64%,7.184%
O=C(Cc1ccsc1)NCC1Cn2nnc(-c3ccoc3)c2CO1 (configuration not stated),3.528%,2.751%,-30.38%,3.134%,13.82%
CN(Cc1ccoc1)C(=O)C1CCN(C(=O)C2CCCC2)CC1,-12.92%,4.396%,15.48%,-7.215%,-4.229%
CN(Cc1ccsc1)C(=O)Cn1c(CS(C)(=O)=O)nc2ccccc21,7.204%,17.17%,8.543%,-21.3%,3.291%
N#Cc1nccnc1N1CCC(CSc2ccccc2)C1 (configuration not stated),-15.01%,-13.62%,1.734%,53.94%,9.452%
COCCOc1ccccc1NC(C)C(=O)NC(=O)NC(C)(C)C (configuration not stated),-0.7298%,9.457%,4.082%,-13.21%,1.393%
CCc1ccc2c(c1)C(CCNC(=O)c1sccc1C)C(=O)N2 (configuration not stated),-2.159%,4.063%,2.793%,-41.64%,-0.3399%
CCOC(=O)C1(Cc2ccc(Cl)cc2)CCN(Cc2ncc[nH]2)CC1,-63.63%,-13.69%,-3.865%,-12.6%,2.991%
CC1c2ncc(Cn3cncn3)n2CCN1C(=O)c1cscn1 (configuration not stated),-4.099%,7.764%,2.857%,-18.11%,-6.322%
Cc1ccn(-c2ccc(NCc3ccnc(N4CCCCC4)c3)nn2)n1,11.63%,-4.201%,6.358%,-14.1%,-1.375%
O=C(c1ccccc1OCC1CC1)N1CCCC(n2ccnc2)C1 (configuration not stated),3.059%,3.431%,-0.3759%,-42.4%,-2.589%
CCOCCN1CCN(Cc2nc(C)no2)CC1CC (configuration not stated),-7.261%,-4.046%,4.926%,-30.47%,2.93%
[H][C@@]12CN(Cc3nccs3)C[C@H](C(=O)N3CCCC3)[C@]1([H])CCO2,-,-1.923%,-,-,-
COCc1nnc(-c2cccc(C(=O)N(C)CC(C)(C)C)c2)o1,-4.019%,47.21%,-1.176%,-,-1.353%
[H][C@]12CCN(S(=O)(=O)c3cccc(C)c3)[C@@]1([H])CC[C@@H](COC)O2,-,-11.45%,-,-,-
CN1CCN(Cc2ccccc2CNC(=O)c2cc(Cl)ccc2F)CC1,1.576%,-1.896%,6.897%,-18.04%,5.836%
O=C(c1cc(C2CC2)no1)N1C[C@H]2CC[C@@H]1CN(Cc1ccccn1)C2,2.119%,-,8.442%,-8.245%,2.448%
CNC(=O)c1cccc(CN2CCC(N(C)Cc3noc(C)n3)C2)c1 (configuration not stated),11.54%,-0.3751%,3.448%,-6.735%,0.8904%
O=C(CN1CC(c2ccccc2)CC1=O)NCc1cc2n(n1)CCNC2 (configuration not stated),0.0708%,4.223%,3.867%,-29.85%,3.641%
Cc1cc(N(C)C)nc(C2(C)CCCN2C(=O)c2ccccc2)n1 (configuration not stated),-4.838%,-1.536%,5.243%,-1.154%,-0.02282%
CN(C)CCC1CCN(c2cc(N3CCCC3CO)ncn2)CC1 (configuration not stated),-1.234%,0.5737%,7.182%,-1.269%,-7.246%
Cn1nc(C2CCN(C(=O)Cc3ccsc3)CC2)c2cccnc21,-1.509%,-,6.383%,7.133%,1.97%
Cc1ccccc1C1(CNC(=O)c2cccc(S(C)(=O)=O)c2)CC1,-0.5172%,-8.523%,-0.8403%,-14.9%,-0.7919%
COc1c(C2CCCN2C(=O)c2ccc3[nH]cnc3c2)c(C)nn1C (configuration not stated),-27.63%,5.583%,2.624%,-25.42%,-0.5825%
Cc1cc(C)nc(Nc2cccc(C3CCCN(S(C)(=O)=O)C3)n2)n1 (configuration not stated),1.99%,9.267%,6.383%,20.25%,-2.203%
CC1(C)CNC(=O)c2nc(-c3nnn[nH]3)[nH]c2C1,-3.817%,1.642%,7.216%,-25.46%,6.286%
CC(C)(C)c1nc(CNC2CCN(S(C)(=O)=O)CC2)cs1,19.59%,7.71%,-21.54%,-27.45%,-1.22%
CN(Cc1nc(C(F)(F)F)cs1)C(=O)CCc1cccnc1,-11.45%,8.167%,5.051%,-8.13%,2.253%
Cc1ccc(C(C)(O)CNC(=O)CCn2ccnc2C(C)C)o1 (configuration not stated),2.398%,1.897%,6.077%,-27.28%,-1.472%
CNc1nccnc1C1CN(C(=O)c2cc[nH]n2)CCO1 (configuration not stated),-11.93%,7.254%,9.302%,15.01%,1.717%
Cc1nn(C)cc1-c1cncn1CCc1ccc2c(c1)OCCO2,-7.316%,-,6.513%,-56.85%,0.6518%
O=C(O)C(F)(F)F.O=C(O)C(F)(F)F.O=C1CC2(CCN(Cc3cccnc3)C2)CN1c1cccc(F)c1 (configuration not stated),-,14.47%,-,-,-
Cl.Cl.O[C@@H]1C[C@@](CNCc2cccc(Cl)c2)(COc2cccnc2)C[C@@H]1O,-,6.061%,-,-,-
Cc1nn(C)c2ncc(NC(=O)N3CCCCCC3)cc12,8.949%,9.379%,3.509%,0.8426%,2.583%
O=C(O)C(F)(F)F.[H][C@@]12OCCN(C(=O)C3CCC3)[C@@]1([H])CC[C@H]2OCCCn1cccn1,-,12.96%,-,-,-
CNC(=O)Cn1ccc2ccc(NC(=O)NC(C)C(C)C)cc21 (configuration not stated),-18.69%,4.656%,5.208%,-12.8%,1.018%
O=C(O)C(F)(F)F.[H][C@@]12COC[C@@H](C(=O)N3CCCC3)[C@]1([H])CN(c1ccncn1)C2,-,-4.113%,-,-,-
CCCOc1ccccc1CN[C@@H]1CCC[C@H]1Cc1cc(C)no1.O=C(O)CC(O)(CC(=O)O)C(=O)O,-,21.46%,-,-,-
CC(Nc1nc(-c2ccncc2)nc2c1CCNC2)c1ccccc1 (configuration not stated),10.03%,38.89%,27.04%,7.057%,1.116%
O=C(O)C(F)(F)F.O=C(O)C(F)(F)F.[H][C@@]12CCCO[C@]1([H])[C@@H](NC(=O)c1cccnc1)CN2Cc1cccs1,-,9.239%,-,-,-
Cc1ccc(CN(CCCn2ccnc2)Cc2cnc(N(C)C)nc2)s1,23.16%,-,3.731%,-20.19%,-0.6989%
O=C(O)c1cccc(CN2CCC(c3ccnc4ccnn34)CC2)c1,-7.397%,3.462%,6.844%,1.526%,-0.471%
O=C(O)C(F)(F)F.[H][C@@]12CCCO[C@]1([H])[C@@H](NC(=O)N(C)C)CN2C1CCOCC1,-,1.449%,-,-,-
CCS(=O)(=O)N1CCOC2(CCCN(Cc3ccccn3)C2)C1.O=C(O)C(F)(F)F (configuration not stated),-,9.094%,-,-,-
CS(=O)(=O)N1C[C@@H]2CC[C@H](C1)N(C/C=C/c1ccc(F)cc1)C2,-7.125%,-,0.5291%,-9.767%,5.181%
COC[C@@H]1CC[C@H]2[C@H](CCN2S(=O)(=O)c2ccc(C)cc2)O1,9.796%,-,2.4%,5.541%,5.97%

For reference, 4 entries once more:

compound	ClpP1P2	Toxoplasma	TcHisRS	Pks13 thioesterase	PfKRS1
O=C(O)C(F)(F)F.[H][C@@]12OCCN(C(=O)C3CCC3)[C@@]1([H])CC[C@H]2OCCCn1cccn1	-	12.96%	-	-	-
CCOCCN1CCN(Cc2nc(C)no2)CC1CC (configuration not stated)	-7.261%	-4.046%	4.926%	-30.47%	2.93%
COCc1nnc(-c2cccc(C(=O)N(C)CC(C)(C)C)c2)o1	-4.019%	47.21%	-1.176%	-	-1.353%
Cc1nn(C)c2ncc(NC(=O)N3CCCCCC3)cc12	8.949%	9.379%	3.509%	0.8426%	2.583%